Reference: US9120744B2, “Plasminogen activator inhibitor-1 inhibitors and methods of use thereof to modulate lipid metabolism” (THE REGENTS OF THE UNIVERSITY OF MICHIGAN, priority 2007, dated 2015)

By UniProt entry, the sequences of proteins in these tests, tags left out. Residues count along the entry.
UniProt P05121, 24-402: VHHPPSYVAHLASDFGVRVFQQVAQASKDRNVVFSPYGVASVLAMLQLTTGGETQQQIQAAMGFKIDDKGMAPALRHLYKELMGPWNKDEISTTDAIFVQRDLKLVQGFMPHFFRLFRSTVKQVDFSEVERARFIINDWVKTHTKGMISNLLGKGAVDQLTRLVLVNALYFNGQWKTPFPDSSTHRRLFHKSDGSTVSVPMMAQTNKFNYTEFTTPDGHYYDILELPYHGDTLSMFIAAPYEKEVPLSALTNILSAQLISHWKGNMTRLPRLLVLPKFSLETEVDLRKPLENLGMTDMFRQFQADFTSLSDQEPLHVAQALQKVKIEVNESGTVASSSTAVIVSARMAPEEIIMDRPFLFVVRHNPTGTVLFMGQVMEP

Molecular target: recombinant active human PAI-1 (Homo sapiens (Human), UniProt P05121)
Assay: β-trypsin screening assay for PAI-1 inhibitors;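 also: fluorogenic readout with PAI-1 and β-trypsin at 10:1 molar ratio, untreated PAI-1 wells set as 100% PAI-1 activity and β-trypsin alone as 0%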
Assay type: biochemical
Settings: 10 μM compound; hit = more than 3 standard deviations above control

screening hit: restoration of β-trypsin activity: demonstrate PAI-1 inhibitor activity
SMILES: CN1CCN(CCCN2c3ccccc3Sc3ccc(Cl)cc32)CC1.O=C(O)/C=C\C(=O)O [10H-Phenothiazine, 2-chloro-10-[3-(4-methyl-1-piperazinyl)propyl-]
